Laboratory results as given in patent US20140350088.
For at least one entry, the source does not settle the construct or the ends of the probe. The comparison behind a weaker result is the experiment's own reference, which may not be listed here. For part of these data: Tags and fusion partners may be left off the protein sequences shown. For part of these data: The direction of at least one scale is not stated here.

The chains behind the UniProt entries cited, without tags or fusion partners. Residues count along the entry.
UniProt P01275, 53-81: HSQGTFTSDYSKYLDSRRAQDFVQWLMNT

Experiments:
[1] = molecular target: biotinylated human glucagon (Homo sapiens) (UniProt P01275); test: competition with a labelled probe; conditions: L-DNA, synthetic protein, mirror-image nucleic acid
human C5a (Homo sapiens) = molecular target: T1, human C5a (Homo sapiens) (UniProt P01031); test: SPR; conditions: L-RNA, purified recombinant protein, protein details: Sigma Aldrich; for binding signal: affinity improved vs NOX-D19001
T1 sequence: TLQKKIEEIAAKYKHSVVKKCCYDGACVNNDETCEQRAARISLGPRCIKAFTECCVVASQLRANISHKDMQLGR

“GCAGTGGGGAAATGGGAGGGCTAGGTGGAAGGAATCTGAGCTACTGC [257-E1-R40-001]”: binds more weakly ([1]; ribo at 40, reduced or lost vs parent, 37 C, synthetic backbone).

“GCAGTGGGGAAATGGGAGGGCTAGGTGGAAGGAATCTGAGCTACTGC [257-E1-R30-001]”: binds ([1]; rA at 30, improved vs parent, among best, competitive pull-down, variant of 257-E1-001).

“GCAGTGGGGAAATGGGAGGGCTAGGTGGAAGGAAUCTGAGCTACTGC [257-E1-R35-001]”: binds more weakly ([1]; rU at 35, reduced or lost vs parent, 37 C, synthetic backbone).

“GCAGTGGGGAAATGGGAGGGCTAGGUGGAAGGAATCTGAGCTACTGC [257-E1-R26-001]”: binds ([1]; rU at 26, affinity unchanged vs parent, variant of 257-E1-001).

“GCAGTGGGGAAATGGGAGGGCTAGGTGGAAGGAATCTGAGCTACTGC [257-E1-R25-001]”: binds more weakly ([1]; ribo at 25, reduced or lost vs parent, 37 C, synthetic backbone).

“GCAGTGGGGAAAUGGGAGGGCTAGGTGGAAGGAATCTGAGCTACTGC [257-E1-R13-001]”: binds more weakly ([1]; rU at 13, reduced or lost vs parent, 37 C, synthetic backbone).

“GCCUGAUGUGGUGGUGAAGGGUUGUUGGGUGUCGACGCACAGGC [NOX-D19001-D24]”: binds more weakly (human C5a (Homo sapiens); 2'-deoxy at 24, reduced or lost vs parent, 37 C, amine coupled to CM5 chip, synthetic backbone, mirror-image nucleic acid).

“GCCUGAUGUGGUGGUGAAGGGUUGUUGGGUGUCGACGCACAGGC [NOX-D19001-D09-30-40]”: binds (human C5a (Homo sapiens); dU at 9, 30, dC at 40, better than double substitutions, amine-coupled for SPR, mirror-image nucleic acid, variant of NOX-D19001).

For “GCCUGAUGUGGUGGUGAAGGGUUGUUGGGUGUCGACGCACAGGC [NOX-D19001-D09]”, the binding signal (human C5a (Homo sapiens); dU at 9, amine-coupled for SPR, mirror-image nucleic acid, variant of NOX-D19001) was 2 fold.

“GCCUGAUGUGGUGGUGAAGGGUUGUUGGGUGUCGACGCACAGGC [NOX-D19001-D18]”: binds more weakly (human C5a (Homo sapiens); 2'-deoxy at 18, reduced or lost vs parent, 37 C, amine coupled to CM5 chip, synthetic backbone, mirror-image nucleic acid).

“GCCUGAUGUGGUGGUGAAGGGUUGUUGGGUGUCGACGCACAGGC [NOX-D19001-D38]”: binds (human C5a (Homo sapiens); 2'-deoxy at 38, unchanged vs parent, also listed as reduced in p388, 37 C, amine coupled to CM5 chip, synthetic backbone, mirror-image nucleic acid).

“GCCUGAUGUGGUGGUGAAGGGUUGUUGGGUGUCGACGCACAGGC [NOX-D19001-D30]”: binds (human C5a (Homo sapiens); dU at 30, improved vs parent, amine-coupled for SPR, mirror-image nucleic acid, variant of NOX-D19001).

“GCCUGAUGUGGUGGUGAAGGGUUGUUGGGUGUCGACGCACAGGC [NOX-D19001-D34]”: binds more weakly (human C5a (Homo sapiens); 2'-deoxy at 34, reduced or lost vs parent, 37 C, amine coupled to CM5 chip, synthetic backbone, mirror-image nucleic acid).

“GCCUGAUGUGGUGGUGAAGGGUUGUUGGGUGUCGACGCACAGGC [NOX-D19001-D07]”: binds more weakly (human C5a (Homo sapiens); dU at 7, reduced or lost binding vs parent, amine-coupled for SPR, mirror-image nucleic acid, variant of NOX-D19001).

“GCCUGAUGUGGUGGUGAAGGGUUGUUGGGUGUCGACGCACAGGC [NOX-D19001-D16]”: binds (human C5a (Homo sapiens); dG at 16, improved vs parent, amine-coupled for SPR, mirror-image nucleic acid, variant of NOX-D19001).

“GCCUGAUGUGGUGGUGAAGGGUUGUUGGGUGUCGACGCACAGGC [NOX-D19001-D12]”: binds more weakly (human C5a (Homo sapiens); dU at 12, reduced or lost vs parent, 37 C, amine coupled to CM5 chip, synthetic backbone, mirror-image nucleic acid).

“GCCUGAUGUGGUGGUGAAGGGUUGUUGGGUGUCGACGCACAGGC [NOX-D19001-D01]”: binds (human C5a (Homo sapiens); 2'-deoxy at 1, improved vs parent, 37 C, amine coupled to CM5 chip, synthetic backbone, mirror-image nucleic …).

“GCCUGAUGUGGUGGUGAAGGGUUGUUGGGUGUCGACGCACAGGC [NOX-D19001-D17]”: binds (human C5a (Homo sapiens); dA at 17, improved vs parent, amine-coupled for SPR, mirror-image nucleic acid, variant of NOX-D19001).

“GCCUGAUGUGGUGGUGAAGGGUUGUUGGGUGUCGACGCACAGGC [NOX-D19001-D39]”: binds (human C5a (Homo sapiens); 2'-deoxy at 39, unchanged vs parent, 37 C, amine coupled to CM5 chip, synthetic backbone, mirror-image nucleic acid).

“GCCUGAUGUGGUGGUGAAGGGUUGUUGGGUGUCGACGCACAGGC [NOX-D19001-D08]”: binds more weakly (human C5a (Homo sapiens); dG at 8, reduced or lost binding vs parent, amine-coupled for SPR, mirror-image nucleic acid, variant of NOX-D19001).

“GCCUGAUGUGGUGGUGAAGGGUUGUUGGGUGUCGACGCACAGGC [NOX-D19001-D35]”: binds (human C5a (Homo sapiens); 2'-deoxy at 35, listed as unchanged, also stated as improved, 37 C, amine coupled to CM5 chip, synthetic backbone, mirror-image nucleic acid).

“GCCUGAUGUGGUGGUGAAGGGUUGUUGGGUGUCGACGCACAGGC [NOX-D19001-D10]”: binds more weakly (human C5a (Homo sapiens); dG at 10, reduced or lost binding vs parent, amine-coupled for SPR, mirror-image nucleic acid, variant of NOX-D19001).

“GCCUGAUGUGGUGGUGAAGGGUUGUUGGGUGUCGACGCACAGGC [NOX-D19001-D22]”: binds (human C5a (Homo sapiens); dU at 22, improved vs parent, 37 C, amine coupled to CM5 chip, synthetic backbone, mirror-image nucleic …).

“GCCUGAUGUGGUGGUGAAGGGUUGUUGGGUGUCGACGCACAGGC [NOX-D19001-D13]”: binds more weakly (human C5a (Homo sapiens); 2'-deoxy at 13, reduced or lost vs parent, 37 C, amine coupled to CM5 chip, synthetic backbone, mirror-image nucleic acid).

“GCCUGAUGUGGUGGUGAAGGGUUGUUGGGUGUCGACGCACAGGC [NOX-D19001-D11]”: binds more weakly (human C5a (Homo sapiens); 2'-deoxy at 11, reduced or lost vs parent, 37 C, amine coupled to CM5 chip, synthetic backbone, mirror-image nucleic acid).

“GCCUGAUGUGGUGGUGAAGGGUUGUUGGGUGUCGACGCACAGGC [NOX-D19001-D09-40]”: binds (human C5a (Homo sapiens); dU at 9, dC at 40, better than single substitutions, amine-coupled for SPR, mirror-image nucleic acid, variant of NOX-D19001).

“GCCUGAUGUGGUGGUGAAGGGUUGUUGGGUGUCGACGCACAGGC [NOX-D19001-D09-16-30-32-40]”: binds (human C5a (Homo sapiens); dU at 9, 30, 32, dG at 16, dC at 40, better than D09-30-32-40, amine-coupled for SPR, mirror-image nucleic acid, variant of NOX-D19001).

“GCCUGAUGUGGUGGUGAAGGGUUGUUGGGUGUCGACGCACAGGC [NOX-D19001-D29]”: binds (human C5a (Homo sapiens); 2'-deoxy at 29, improved vs parent, 37 C, amine coupled to CM5 chip, synthetic backbone, mirror-image nucleic …).

“GCCUGAUGUGGUGGUGAAGGGUUGUUGGGUGUCGACGCACAGGC [NOX-D19001-D03]”: binds (human C5a (Homo sapiens); 2'-deoxy at 3, unchanged vs parent, 37 C, amine coupled to CM5 chip, synthetic backbone, mirror-image nucleic acid).

“GCCUGAUGUGGUGGUGAAGGGUUGUUGGGUGUCGACGCACAGGC [NOX-D19001-D32-40]”: binds (human C5a (Homo sapiens); dU at 32, dC at 40, better than single substitutions, amine-coupled for SPR, mirror-image nucleic acid, variant of NOX-D19001).

“GCCUGAUGUGGUGGUGAAGGGUUGUUGGGUGUCGACGCACAGGC [NOX-D19001-D19]”: binds more weakly (human C5a (Homo sapiens); 2'-deoxy at 19, reduced or lost vs parent, 37 C, amine coupled to CM5 chip, synthetic backbone, mirror-image nucleic acid).

“GCCUGAUGUGGUGGUGAAGGGUUGUUGGGUGUCGACGCACAGGC [NOX-D19001-D31]”: binds more weakly (human C5a (Homo sapiens); 2'-deoxy at 31, reduced or lost vs parent, 37 C, amine coupled to CM5 chip, synthetic backbone, mirror-image nucleic acid).

“GCCUGAUGUGGUGGUGAAGGGUUGUUGGGUGUCGACGCACAGGC [NOX-D19001-D04]”: binds more weakly (human C5a (Homo sapiens); dU at 4, reduced or lost binding vs parent, amine-coupled for SPR, mirror-image nucleic acid, variant of NOX-D19001).

“GCCUGAUGUGGUGGUGAAGGGUUGUUGGGUGUCGACGCACAGGC [NOX-D19001-D15]”: binds more weakly (human C5a (Homo sapiens); dU at 15, reduced or lost vs parent, 37 C, amine coupled to CM5 chip, synthetic backbone, mirror-image nucleic acid).

“GCCUGAUGUGGUGGUGAAGGGUUGUUGGGUGUCGACGCACAGGC [NOX-D19001-D09-30-32-40]”: binds (human C5a (Homo sapiens); dU at 9, 30, 32, dC at 40, better than triple substitutions, amine-coupled for SPR, mirror-image nucleic acid, variant of NOX-D19001).

“GCCUGAUGUGGUGGUGAAGGGUUGUUGGGUGUCGACGCACAGGC [NOX-D19001-D43]”: binds (human C5a (Homo sapiens); 2'-deoxy at 43, improved vs parent, 37 C, amine coupled to CM5 chip, synthetic backbone, mirror-image nucleic …).

“GCCUGAUGUGGUGGUGAAGGGUUGUUGGGUGUCGACGCACAGGC [NOX-D19001-6xDNA (D09-16-17-30-32-40)]” was tested, and the binding signal (human C5a (Homo sapiens); dU at 9, 30, 32, dG at 16, dA at 17, dC at 40, amine-coupled for SPR, mirror-image nucleic acid, variant of NOX-D19001) was 4.2 fold.

“GCCUGAUGUGGUGGUGAAGGGUUGUUGGGUGUCGACGCACAGGC [NOX-D19001-D25]”: binds (human C5a (Homo sapiens); dU at 25, improved vs parent, 37 C, amine coupled to CM5 chip, synthetic backbone, mirror-image nucleic …).

“GCCUGAUGUGGUGGUGAAGGGUUGUUGGGUGUCGACGCACAGGC [NOX-D19001-D09-32-40]”: binds (human C5a (Homo sapiens); dU at 9, 32, dC at 40, better than double substitutions, amine-coupled for SPR, mirror-image nucleic acid, variant of NOX-D19001).
